Assay results from patent publication US20220396632A1.
These are yes or no findings as the source states them, for the method shown. Some entries that bind do so weakly or less than the wild type. One block for each binder: values may come before it.

By UniProt entry, the sequences of proteins in these tests, tags left out. Where a name states a change or a piece, a line headed by the entry shows the natural chain unless it says otherwise.
UniProt Q14242: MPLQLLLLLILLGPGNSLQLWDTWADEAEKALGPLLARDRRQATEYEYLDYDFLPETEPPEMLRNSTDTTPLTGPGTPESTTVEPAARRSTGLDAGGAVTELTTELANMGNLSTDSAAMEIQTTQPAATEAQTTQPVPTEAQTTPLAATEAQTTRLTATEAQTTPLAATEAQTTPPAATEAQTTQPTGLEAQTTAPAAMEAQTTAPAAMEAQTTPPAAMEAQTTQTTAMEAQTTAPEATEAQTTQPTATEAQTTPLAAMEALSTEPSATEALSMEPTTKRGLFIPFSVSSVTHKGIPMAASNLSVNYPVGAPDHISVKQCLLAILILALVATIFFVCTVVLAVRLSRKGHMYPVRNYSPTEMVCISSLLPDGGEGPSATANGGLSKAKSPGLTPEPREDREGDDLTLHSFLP

Columns and labels:
[1] = biological target: T1, PSGL-1(49-56)-Biotin (human) (UniProt Q14242); test: ELISA, plate-immobilized biotin peptide
T1 sequence (peptide, C-terminal biotin, looked up): LDYDFLPE

[2] = biological target: T2, 145-170; test: ELISA, streptavidin-immobilized biotin peptide
T2 sequence (peptide, N-terminal acetyl; C-terminal Lys-biotin): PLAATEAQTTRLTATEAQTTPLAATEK

[3] = biological target: T3, 165-190; test: ELISA, streptavidin-immobilized biotin peptide
T3 sequence (peptide, N-terminal acetyl; C-terminal Lys-biotin): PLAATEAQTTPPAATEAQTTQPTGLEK

[4] = biological target: T4, 185-210; test: ELISA, streptavidin-immobilized biotin peptide
T4 sequence (peptide, N-terminal acetyl; C-terminal Lys-biotin): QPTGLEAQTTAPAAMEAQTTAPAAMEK

[5] = biological target: T5, 205-230; test: ELISA, streptavidin-immobilized biotin peptide
T5 sequence (peptide, N-terminal acetyl; C-terminal Lys-biotin): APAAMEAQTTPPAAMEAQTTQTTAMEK

[6] = biological target: T6, 225-250; test: ELISA, streptavidin-immobilized biotin peptide
T6 sequence (peptide, N-terminal acetyl; C-terminal Lys-biotin): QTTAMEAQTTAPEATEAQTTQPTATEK

[7] = biological target: T7, 245-265; test: ELISA, streptavidin-immobilized biotin peptide
T7 sequence (peptide, N-terminal acetyl; C-terminal Lys-biotin): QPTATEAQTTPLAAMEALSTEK

[8] = biological target: T8, 260-280; test: ELISA, streptavidin-immobilized biotin peptide
T8 sequence (peptide, N-terminal acetyl; C-terminal Lys-biotin): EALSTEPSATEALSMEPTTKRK

[9] = biological target: T9, 275-295; test: ELISA, streptavidin-immobilized biotin peptide
T9 sequence (peptide, N-terminal acetyl; C-terminal Lys-biotin): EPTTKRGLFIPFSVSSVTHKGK

[10] = biological target: T10, 63-80; test: ELISA, streptavidin-immobilized biotin peptide
T10 sequence (peptide, N-terminal acetyl; C-terminal Lys-biotin): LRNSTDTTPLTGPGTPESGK

[11] = biological target: T11, 75-95; test: ELISA, streptavidin-immobilized biotin peptide
T11 sequence (peptide, N-terminal acetyl; C-terminal Lys-biotin): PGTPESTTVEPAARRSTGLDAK

[12] = biological target: T12, Biotin PSGL-1(56-70) peptide (human); test: ELISA, streptavidin-immobilized biotin peptide
T12 sequence (peptide, N-terminal acetyl; C-terminal Lys-biotin): ETEPPEMLRNSTDTTGK

[13] = biological target: T13, PSGL-1(120-140); test: ELISA, streptavidin-immobilized biotin peptide
T13 sequence (peptide, N-terminal acetyl; C-terminal Lys-biotin): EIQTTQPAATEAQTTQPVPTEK

[14] = biological target: T14, PSGL-1(305-320); test: ELISA, streptavidin-immobilized biotin peptide
T14 sequence (peptide, N-terminal acetyl; C-terminal Lys-biotin): VNYPVGAPDHISVKQSK

[15] = biological target: T15, PSGL-1(90-110); test: ELISA, streptavidin-immobilized biotin peptide
T15 sequence (peptide, N-terminal acetyl; C-terminal Lys-biotin): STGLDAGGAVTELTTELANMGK

[16] = biological target: T16, 131-150; test: ELISA, streptavidin-immobilized biotin peptide [cont.]
T16 sequence (peptide, N-terminal acetyl; C-terminal Lys-biotin): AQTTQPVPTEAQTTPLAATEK

[17] = biological target: T2, 145-170; test: as above
[18] = biological target: T3, 165-190; test: as above
[19] = biological target: T4, 185-210; test: as above
[20] = biological target: T5, 205-230; test: as above
[21] = biological target: T6, 225-250; test: as above
[22] = biological target: T7, 245-265; test: as above
[23] = biological target: T8, 260-280; test: as above
[24] = biological target: T9, 275-295; test: as above
[25] = biological target: T10, 63-80; test: as above
[26] = biological target: T11, 75-95; test: as above
[27] = biological target: T12, Biotin PSGL-1(56-70) peptide (human); test: as above
[28] = biological target: T13, PSGL-1(120-140); test: as above
[29] = biological target: T14, PSGL-1(305-320); test: as above
[30] = biological target: T15, PSGL-1(90-110); test: as above

- binding [1]: binds
B1: 43B6 (antibody, V domains shown)
VH: EVQLQQSGPDLVKPGALVKISCKASGYSFTAYYIHWVKQSHGKSLEWIGRVNPNTGGTSYNPKFKGKAILNVDKSSSTAYMELRSLTSEDSAVYYCARSGSPYYRYDDWGQGTTLTVSS
VL: ENVLTQSPAIMSASPGEKVTMTCRASSTVNSTYLHWFQQKSGASPKLWIYGSSNLASGVPARFSGSGSGTSYSLTISSVEAEDAATYYCQQYSGYPLTFGAGTTLELK

- binding [2]: no binding (tested: 10 nM)
- binding [3]: no binding (tested: 10 nM)
- binding [4]: no binding (tested: 10 nM)
- binding [5]: no binding (tested: 10 nM)
- binding [6]: no binding (tested: 10 nM)
- binding [7]: no binding (tested: 10 nM)
- binding [8]: no binding (tested: 10 nM)
- binding [9]: no binding (tested: 10 nM)
- binding [10]: no binding (tested: 10 nM)
- binding [11]: no binding (tested: 10 nM)
- binding [12]: no binding (tested: 10 nM)
- binding [13]: no binding (tested: 10 nM)
- binding [15]: no binding (tested: 10 nM)
B2: 18F17 (antibody, V domains shown)
VH: QVTLKESGPGILQPSQTLSLTCSFSGFSLSTFGMGVGWIRQPSGKGLEWLAHIWWDDDKYYNPALKSRLTISKDTSKNQVFLKIANVDTADTATYYCAIYYDYGVGFDYWGQGTTLTVSS
VL: DIVMTQAAPSVPVTPGESVSISCRSSKSLLHSNGYTFLYWFLQRPGQSPQLLIYRMSNLASGVPDRFSGSGSGTAFTLRISRVEAEDVGVYYCMQHLEYPFTFGTGTKLEIK
- binding [14]: no binding (tested: Log M -7.4 (about 40 nM))

Second part, the binder before the results:

B3: 18F02 (antibody, V domains shown)
VH: QVQLQQPGAELVKPGASVKLSCKASGYTFTSYWMHWVKQRPGQGLEWIGMIHPNSGRTNYNEKFKSKATLTVDKSSSTAYMQLSSLTSEDSAVYYCARSDYWGQGTTLTVSS
VL: DIVMTQAAFSNPVTLGTSASISCRSSKSLLHSDGITYLYWFLQRPGQSPQLLIYRMSNLASGVPDRFSGSGSGTDFTLRISRVEAEDVGVYYCAQMLEFPRTFGGGTKLEIK
- binding [1]: binds
- binding [16]: no binding (tested: 10 nM)
- binding [17]: no binding (tested: 10 nM)
- binding [18]: no binding (tested: 10 nM)
- binding [19]: no binding (tested: 10 nM)
- binding [20]: no binding (tested: 10 nM)
- binding [21]: no binding (tested: 10 nM)
- binding [22]: no binding (tested: 10 nM)
- binding [23]: no binding (tested: 10 nM)
- binding [24]: no binding (tested: 10 nM)
- binding [25]: no binding (tested: 10 nM)
- binding [26]: no binding (tested: 10 nM)
- binding [27]: no binding (tested: 10 nM)
- binding [28]: no binding (tested: Log M -7.7 (about 20 nM))
- binding [29]: no binding (tested: 10 nM)
- binding [30]: no binding (tested: 10 nM)

B4: 9F9 (antibody, V domains shown)
VH: EVQLVETGGGLVQPKGSLKLSCAASGFTFNTNAMNWVRQAPGKGLEWVARIRSKSNNYATYYADSVKDRFTISRDDTQSMIYLQMNNLKTEDTGMYYCVRGGSYWYFDVWGAGTTVTVSS
VL: DVLMTQTPLSLPVSLGDQASISCRSSQSIVNSNGNTYLEWYLQKPGQSPKLLIYKVSNRFSGVPDRFSGSGSGTDFTLKISRVEAEDLGVYYCFQGSHVPWTFGGGTKLEIK
- binding [1]: binds
